Data taken from ChEMBL document CHEMBL3988442, “University of Dundee, Small-Polar-MMV Screening Library” (2021).

Mtb glucose medium: 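Whole-cell growth test on Mycobacterium tuberculosis, read after 3 days in glucose-containing 7H9 medium; the read-out is not stated. Concentration: 50 µM. Higher reads as more growth inhibition (inferred: compounds with an IC50 in retests scored well above the rest). Size under these conditions: about 69,000 compounds, about 760 of them at 50% or above in at least one test.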
Mtb cholesterol medium: 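Whole-cell growth test on Mycobacterium tuberculosis, read after 4 days in a medium based on cholesterol and the lipid DPPC; the read-out is not stated. Compounds at 50 µM. Direction is inferred from retests: higher values go with more growth inhibition. About 69,000 compounds were tested under these conditions; 0.54% (about 370) showed 50% or more at least once.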

Values are the deposited “Percent Effect”, in %. The record does not define 0% and 100%; most values in the screen are far below 50% and negative numbers occur (in some assays of this library far below -100). This is an unselected part of the compounds tested. Two or more numbers in one place are separate tests of the same structure; such repeats can differ widely.

| compound | Mtb glucose medium | Mtb cholesterol medium |
|---|---|---|
| `CC(C)NC(=O)N1CCC2(COCc3cnc(-c4cccnc4)nc32)C1` (centres unmarked) | 4.203 | -11.59 |
| `CCN1CC(C(=O)N(C)Cc2ccon2)CC1=O` (centres unmarked) | -8.073 | -2.787 |
| `CN(Cc1ccno1)C(=O)c1cccc(CC2CCNCC2)c1` | 6.522 and 0.9187 | 4.527 |
| `CC(=O)N1CC(=O)N(c2ccccc2)CC12CCN(Cc1nccs1)C2.O=C(O)C(F)(F)F` (centres unmarked) | -16.06 | -7.234 |
| `O=C(O)c1cc(S(=O)(=O)Nc2ccccc2)cc2c1OCCO2` | 21.11 | -6.296 |
| `Clc1ccc2cccnc2c1CN1CCCC1Cn1cncn1` (centres unmarked) | 34.28 | 10.07 |
| `CNc1nc(CNC(=O)Nc2cccc(F)c2C)cs1` | -6.216 | -5.392 |
| `[H][C@@]12C[C@H](C(=O)Nc3cccnc3)[C@@]([H])(CN(C)C1)O2` | 1.47 | 0.35 and 9.511 |
| `O=C(O)C(F)(F)F.[H][C@]12CC[C@@]3(N=C(C)N(CC4CC4)C3=O)[C@@]1([H])CN(Cc1ccc(C)cc1)C2` | -14.57 | 2.192 and 1.05 |
| `CN(C)CCN(Cc1ccccn1)C(=O)Nc1cccc(F)c1` | -1.634 and 4.945 | 0.9472 |
| `CN(C)CCCNC(=O)c1ccnc(OCc2ccccc2)c1` | 14.59 | 9.086 |
| `COc1ccc(F)cc1CN1CCCC1Cn1nc(C)nc1C` (centres unmarked) | -15.25 | -10.9 |
| `Cn1ncc(C(=O)OCC2CCN(c3ccccc3)C2)c1C(F)F` (centres unmarked) | 6.03 and -10.75 | -2.022 |
| `O=C(O)C(F)(F)F.c1cnc(NCc2nnn3c2CN(Cc2ccco2)CCC3)nc1` | -7.806 | -11.56 |
| `O=C(CCc1cc(F)ccc1F)NS(=O)(=O)c1ccc2c(c1)OCCO2` | 10.25 | -1.674 |
| `Cc1ccc(-c2noc(CCC(=O)NC(C)Cn3cccn3)n2)cc1` (centres unmarked) | -17.47 | -19.33 |
| `CC(C)N1CCC(Cc2cc(-c3cc(F)ccc3C(=O)O)ncn2)C1` (centres unmarked) | -15.56 | -11.81 |
| `CN(C)c1ncc(CNS(=O)(=O)c2cc(F)ccc2Cl)n1C` | -5.399 and -0.0499 | -7.13 |
| `Cc1noc(C)c1C(=O)N1CCCC(c2cc(C(F)(F)F)[nH]n2)C1` (centres unmarked) | -8.819 and -28.3 | -26.2 |
| `N#CCCN(Cc1ccco1)C(=O)CN1CCCC1c1cccs1` (centres unmarked) | 21.02 | 1.556 |
| `CCCNC(=O)CNc1cc(C#N)ccc1OCC` | 24.84 | 17.6 |
| `O=C(O)C(F)(F)F.[H][C@@]12CCN(C(=O)Cc3cccs3)[C@@]1([H])CC(=O)N2Cc1cccnc1` | -2.844 | 16.08 |
| `COc1c(C(=O)NC(C)Cc2ccccc2Cl)c(C)nn1C` (centres unmarked) | -9.532 | 10.56 |
| `O=C(NC1CCN(Cc2ccc(F)cc2)CC1)c1ccc2c(c1)CCC2` | 12.7 and 2.465 | 11.63 |
| `O=C(NCc1cc2n(n1)CCCNC2)C1(c2ccc(Cl)cc2)CCC1` | 7.87 | -4.375 |
| `COc1ccc(CCC(=O)N(C(C)C)C2CCOCC2)cc1` | -31.25 | -9.744 |
| `Cc1n[nH]c(C2CN(C(=O)c3ccn(C)c(=O)c3)CCO2)n1` (centres unmarked) | -19.99 | -32.89 |
| `CSc1ncnc(NCc2ccccc2F)c1C#N` | -9.819 and -2.238 | -16.62 |
| `CCc1[nH]ncc1C(=O)N1CCCC(n2ccnc2C(C)C)C1` (centres unmarked) | 9.062 | -4.933 |
| `CCN1CCN(C(=O)C2CC(=O)N(c3cnn(C(C)C)c3)C2)CC1` (centres unmarked) | 18.29 and -6.966 | -26.5 |
| `CCCc1cc(NCCn2cccn2)n2nccc2n1` | -10.88 | -7.85 |
| `CS(=O)(=O)c1ccc(NCCC2CCCO2)c(S(C)(=O)=O)c1` (centres unmarked) | 0.4758 | 0.7169 |
| `CCNC(=O)[C@@H]1C[C@H](N)CN1Cc1ccc(-c2ccccc2C#N)o1` | -7.967 | 1.57 |
| `CC(C)[C@]1(O)CN(C(=O)C2(Cn3cccn3)CC2)C[C@H]1C` | -8.21 | 0.9704 |
| `Cc1ccc(C(=O)NCCCS(=O)(=O)c2ccccc2)c(=O)[nH]1` | 15.34 | -0.02126 |
| `CC(=O)N(C)c1nc(CN2CCCCC2Cn2cncn2)cs1` (centres unmarked) | -13.82 | -10.36 |
| `COc1ccccc1CN1C[C@@H](F)[C@@H](OCc2nc3ncccc3[nH]2)C1` | 6.375 and 3.462 | 0.4826 |
| `CCOc1ccc(CC(CNC(=O)c2occc2C)C(N)=O)cc1` (centres unmarked) | 2.685 | -16.58 |
| `CCc1c(C)nc(N)nc1N1CCCC(c2nc(CCOC)no2)C1` (centres unmarked) | -7.162 | 4.401 |
| `O=C(Cc1cccc(F)c1F)NS(=O)(=O)c1ccc(Cl)cc1F` | -8.9 and -41.3 | -35.91 |
| `CSc1ccc(C(=O)N2CC(=O)N(CC3CC3)CC(O)C2)cc1` (centres unmarked) | -4.362 | -9.663 |
| `Cc1nc(CCCNC(=O)C2CC(=O)N(C3CC3)C2)sc1C` (centres unmarked) | -35.17 | -35.52 |
| `O=C(O)CC1COCCN1C(=O)C1(c2ccc(Cl)cc2)CCC1` (centres unmarked) | -12.07 | -9.535 |
| `CN1CCC2(CCN(CC3CC3)CC2)C1=O.O=C(O)C(F)(F)F` | -6.538 and 20.68 | 15.43 |
| `CNc1ncccc1CN1CCN(C)CC(C(=O)N(C)C)C1` (centres unmarked) | -23.94 | -24.79 |
| `COc1ccccc1OCCc1cc(C2CCNC2)n[nH]1.Cl.Cl` (centres unmarked) | -4.816 | 2.633 |
| `O=C(O)C(F)(F)F.[H][C@@]12COC[C@]1(CN(C)C)CN(C(=O)c1cc(C)oc1C)C2` | -8.985 and 2.86 | 3.879 |
| `O=c1c(CN2CCCCC2)coc2ccc(Cl)cc12` | 0.1811 and -2.013 | 9.696 |
| `COc1ccc(CN2CCC3(CC2)CCN(CC(=O)N(C)C)C3=O)cc1.O=C(O)C(F)(F)F` | -8.354 | -2.871 |

The last 5 entries again:

* CNc1ncccc1CN1CCN(C)CC(C(=O)N(C)C)C1 (centres unmarked) : Mtb glucose medium: -23.94%; Mtb cholesterol medium: -24.79%
* COc1ccccc1OCCc1cc(C2CCNC2)n[nH]1.Cl.Cl (centres unmarked) : Mtb glucose medium: -4.816%; Mtb cholesterol medium: 2.633%
* O=C(O)C(F)(F)F.[H][C@@]12COC[C@]1(CN(C)C)CN(C(=O)c1cc(C)oc1C)C2 : Mtb glucose medium: -8.985% and 2.86%; Mtb cholesterol medium: 3.879%
* O=c1c(CN2CCCCC2)coc2ccc(Cl)cc12 : Mtb glucose medium: 0.1811% and -2.013%; Mtb cholesterol medium: 9.696%
* COc1ccc(CN2CCC3(CC2)CCN(CC(=O)N(C)C)C3=O)cc1.O=C(O)C(F)(F)F : Mtb glucose medium: -8.354%; Mtb cholesterol medium: -2.871%